The text below walks through data of US4546096A, “Anticholinergic glucuronides and antiperspirant use thereof” (Repligen Corporation, priority 1984, dated 1985).

The series relates to rabbit eye pupil. In words: Mydriasis assay (rabbit eye pupil diameter). It counts as in vivo. Particulars: error ± 0.5 mm. On the procedure: The rabbit eye pupil diameter was measured with a clear plastic ruler after exposing the eye to 50 W light at a distance of 6 in. Exposure to light contracts the pupil to approximately 3 mm diameter.
The addition of the compounds to be tested is done in a maximum volume of 150 μl, in 50 mM NaPO4, pH 6.8, 100 mM NaCl. The sample was applied in the upper corner of the eye and was allowed to completely cover the cornea after each addition. Pupil dilation was measured at 3 separate intervals following the procedure outlined above. Buffer controls were run in one eye and the anticholinergic in the other.

The structures appear in SMILES notation.

`CCN(Cc1ccncc1)C(=O)C(CO)c1ccccc1` (centres unmarked) [Tropicamide]: the “Change in Pupil Diameter as a function of time” value runs as follows: (20 ug applied, in 35 min) 1 mm; (600 ug applied, in 20 min) 7 mm.
